Data source: PubChem BioAssay AID1224826 (NIAID, 2016)

- Aim: 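Genes that change LPS-induced Tnf promoter activity in mouse macrophages when knocked down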 (primary screen)
- System: RAW264.7 G9 macrophages from mouse bearing reporters for p65 (GFP) and the Tnf promoter (mCherry)
- Knock-down reagent: siRNA pool against mouse genes, 100 nM
- Timing: 16 h of LPS stimulation, after 2 days of siRNA transfection
- Challenge: bacterial lipopolysaccharide (Salmonella minnesota R595), 10 ng/ml
- Measured: 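Nuclear mCherry signal of the Tnf promoter reporter measured by imaging after background removal, scaled to each plate median and turned into robust z-scores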
- Direction: Tnf reporter robust z-score: higher = stronger Tnf promoter reporter signal after LPS
- Active means: 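a well counts as active at a score of -1.3 or below (Tlr4 knock-down control median) or above 3 (raised signal); controls and wells holding fewer than 50 cells are excluded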
- Meaning of the calls: active = Tnf reporter clearly lowered or raised; inactive = no clear change in Tnf reporter
In all, the deposit lists about 17,000 reagents; below is a part drawn at random. About 1,110 of them (6.6%) count as active. 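Active means lowered or raised reporter signal; replicate intensities are raw and not normalised per plate.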 A number with no mark means an inactive call. Further read-outs or replicates are left out here. Reagent sequences are not shown.

| Target gene | Tnf reporter robust z-score | fewer than 50 cells in well |
| --- | --- | --- |
| Dsc2 | 0.98 | enough cells in well |
| Nfix | 0.13 | enough cells in well |
| Asb17 | -0.09 | enough cells in well |
| Adi1 | -0.61 | enough cells in well |
| Slc25a44 | -0.26 | enough cells in well |
| Vmn1r16 | 1.53 | enough cells in well |
| Or4k47 | 0.33 | enough cells in well |
| Or5aq7 | -1.06 | enough cells in well |
| Arf3 | 0.84 | enough cells in well |
| Actr8 | 0.2 | enough cells in well |
| Tubb4a | -0.38 | enough cells in well |
| Tfpt | 0.54 | enough cells in well |
| Atp13a5 | 2.16 | enough cells in well |
| Cyp21a1 | -0.61 | enough cells in well |
| Vangl2 | -0.91 | enough cells in well |
| Rbpms | 0.27 | enough cells in well |
| Arl6ip4 | -1.14 | enough cells in well |
| Vmn1r28 | 3.74 (active) | enough cells in well |
| Or4c115 | 1.07 | enough cells in well |
| Tpo | 0.01 | enough cells in well |
| Magea1 | -0.79 | enough cells in well |
| Art5 | 0.06 | enough cells in well |
| Dynlt5 | 5.95 (active) | enough cells in well |
| Or4d6 | 0.07 | enough cells in well |
| Prkar2b | 0.02 | enough cells in well |

Next part (2 carried over from the part before).
| Target gene | Tnf reporter robust z-score | fewer than 50 cells in well |
| --- | --- | --- |
| Or4d6 | 0.07 | enough cells in well |
| Prkar2b | 0.02 | enough cells in well |
| Zfp932 | – | fewer than 50 cells per well; well left out of calls |
| Slfnl1 | -0.13 | enough cells in well |
| Pcdhgb6 | – | fewer than 50 cells per well; well left out of calls |
| Prpf18 | 0.05 | enough cells in well |
| AB124611 | 0.55 | enough cells in well |
| Zfp677 | 0.83 | enough cells in well |
| Bok | 2.83 | enough cells in well |
| Vldlr | 0.82 | enough cells in well |
| Stxbp1 | -0.33 | enough cells in well |
| Usp49 | -0.41 | enough cells in well |
| Mief1 | 0.31 | enough cells in well |
| Gfra4 | -0.82 | enough cells in well |
| Zfp354a | -0.82 | enough cells in well |
| Mfap4 | 1.3 | enough cells in well |
| Engase | 0.91 | enough cells in well |
